Source: the supplement of paper PMC7661543
Differences between knockout arms are mostly noise.

System: HCC-38
Test: relative cell number vs DMSO control (72 h) (% of DMSO); higher = less growth inhibition (more cells)
Description: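 QMAP-Seq: a pool of 5 breast cancer cell lines (ZR-75-1, SKBR3, HCC-38, MDA-MB-231, BT-20), each carrying 12 doxycycline-inducible Cas9 sgRNA perturbations (11 knockouts plus non-targeting sgNT), was treated with compounds for 72 h at four 10-fold doses (10 nM-10 uM or 1 nM-1 uM range). Barcodes were amplified and sequenced, and cell number was interpolated from 293T spike-in standard curves. The result is expressed as % of the median of DMSO wells. Two biological replicates.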

CC(C)n1c(/C=C/C(O)CC(O)CC(=O)O)c(-c2ccc(F)cc2)c2ccccc21 (stereo not drawn) [Fluvastatin]
Settings | relative cell number
sgRNA knockout: sgATF3, 10 nM | 119
sgRNA knockout: sgATF3, 100 nM | 101.1
sgRNA knockout: sgATF3, 1000 nM | 95.3
sgRNA knockout: sgATF3, 10000 nM | 63.7
sgRNA knockout: sgATF4, 10 nM | 116
sgRNA knockout: sgATF4, 100 nM | 93.3
sgRNA knockout: sgATF4, 1000 nM | 102.6
sgRNA knockout: sgATF4, 10000 nM | 66.05
sgRNA knockout: sgATF6, 10 nM | 108
sgRNA knockout: sgATF6, 100 nM | 97.4
sgRNA knockout: sgATF6, 1000 nM | 108
sgRNA knockout: sgATF6, 10000 nM | 61.4
sgRNA knockout: sgATG7, 10 nM | 106
sgRNA knockout: sgATG7, 100 nM | 102
sgRNA knockout: sgATG7, 1000 nM | 89.8
sgRNA knockout: sgATG7, 10000 nM | 61.3
sgRNA knockout: sgERN1, 10 nM | 106
sgRNA knockout: sgERN1, 100 nM | 97.5
sgRNA knockout: sgERN1, 1000 nM | 111
sgRNA knockout: sgERN1, 10000 nM | 60.8
sgRNA knockout: sgHSF1, 10 nM | 106
sgRNA knockout: sgHSF1, 100 nM | 103
sgRNA knockout: sgHSF1, 1000 nM | 93.7
sgRNA knockout: sgHSF1, 10000 nM | 77
sgRNA knockout: sgHSF2, 10 nM | 108
sgRNA knockout: sgHSF2, 100 nM | 101
sgRNA knockout: sgHSF2, 1000 nM | 97.2
sgRNA knockout: sgHSF2, 10000 nM | 71.1
sgRNA knockout: sgKEAP1, 10 nM | 91
sgRNA knockout: sgKEAP1, 100 nM | 109
sgRNA knockout: sgKEAP1, 1000 nM | 93.1
sgRNA knockout: sgKEAP1, 10000 nM | 64.6
sgRNA knockout: sgNFE2L2, 10 nM | 112
sgRNA knockout: sgNFE2L2, 100 nM | 93.7
sgRNA knockout: sgNFE2L2, 1000 nM | 112
sgRNA knockout: sgNFE2L2, 10000 nM | 64.28
sgRNA knockout: sgSLC35F2, 10 nM | 106
sgRNA knockout: sgSLC35F2, 100 nM | 100
sgRNA knockout: sgSLC35F2, 1000 nM | 101.5
sgRNA knockout: sgSLC35F2, 10000 nM | 62.1
sgRNA knockout: sgXBP1, 10 nM | 110
sgRNA knockout: sgXBP1, 100 nM | 100
sgRNA knockout: sgXBP1, 1000 nM | 105
sgRNA knockout: sgXBP1, 10000 nM | 60.9

Nc1nc(Cl)nc2c1ncn2[C@@H]1O[C@H](CO)[C@@H](O)[C@@H]1F [Clofarabine]
Settings | relative cell number
sgRNA knockout: sgATF3, 10 nM | 106
sgRNA knockout: sgATF3, 100 nM | 26.3
sgRNA knockout: sgATF3, 1000 nM | 10.6
sgRNA knockout: sgATF3, 10000 nM | 11.6
sgRNA knockout: sgATF4, 10 nM | 98.7
sgRNA knockout: sgATF4, 100 nM | 26
sgRNA knockout: sgATF4, 1000 nM | 11.1
sgRNA knockout: sgATF4, 10000 nM | 11.5
sgRNA knockout: sgATF6, 10 nM | 101
sgRNA knockout: sgATF6, 100 nM | 30
sgRNA knockout: sgATF6, 1000 nM | 11.8
sgRNA knockout: sgATF6, 10000 nM | 15.2
sgRNA knockout: sgATG7, 10 nM | 97.9
sgRNA knockout: sgATG7, 100 nM | 28.6
sgRNA knockout: sgATG7, 1000 nM | 10.8
sgRNA knockout: sgATG7, 10000 nM | 12.3
sgRNA knockout: sgERN1, 10 nM | 94.1
sgRNA knockout: sgERN1, 100 nM | 28.1
sgRNA knockout: sgERN1, 1000 nM | 12.5
sgRNA knockout: sgERN1, 10000 nM | 11.7
sgRNA knockout: sgHSF1, 10 nM | 84.3
sgRNA knockout: sgHSF1, 100 nM | 35.4
sgRNA knockout: sgHSF1, 1000 nM | 13.5
sgRNA knockout: sgHSF1, 10000 nM | 11
sgRNA knockout: sgHSF2, 10 nM | 98.7
sgRNA knockout: sgHSF2, 100 nM | 26.2
sgRNA knockout: sgHSF2, 1000 nM | 15.4
sgRNA knockout: sgHSF2, 10000 nM | 11.9
sgRNA knockout: sgKEAP1, 10 nM | 92.8
sgRNA knockout: sgKEAP1, 100 nM | 35.4
sgRNA knockout: sgKEAP1, 1000 nM | 13.26
sgRNA knockout: sgKEAP1, 10000 nM | 10.7
sgRNA knockout: sgNFE2L2, 10 nM | 99.5
sgRNA knockout: sgNFE2L2, 100 nM | 24
sgRNA knockout: sgNFE2L2, 1000 nM | 10.4
sgRNA knockout: sgNFE2L2, 10000 nM | 10.5
sgRNA knockout: sgSLC35F2, 10 nM | 98.3
sgRNA knockout: sgSLC35F2, 100 nM | 24.6
sgRNA knockout: sgSLC35F2, 1000 nM | 10.7
sgRNA knockout: sgSLC35F2, 10000 nM | 11.7
sgRNA knockout: sgXBP1, 10 nM | 98.2
sgRNA knockout: sgXBP1, 100 nM | 25.93
sgRNA knockout: sgXBP1, 1000 nM | 8.85
sgRNA knockout: sgXBP1, 10000 nM | 12.2
